Results as given in paper PMC12165811.
Results are given in words; binding and its absence hold for the method and conditions named. Binding seen in cells or lysates may run through a third protein. Some entries that bind do so weakly or less than the wild type.

Sequences of proteins named here, by UniProt entry; tags and fusion partners are left off.
UniProt P09405: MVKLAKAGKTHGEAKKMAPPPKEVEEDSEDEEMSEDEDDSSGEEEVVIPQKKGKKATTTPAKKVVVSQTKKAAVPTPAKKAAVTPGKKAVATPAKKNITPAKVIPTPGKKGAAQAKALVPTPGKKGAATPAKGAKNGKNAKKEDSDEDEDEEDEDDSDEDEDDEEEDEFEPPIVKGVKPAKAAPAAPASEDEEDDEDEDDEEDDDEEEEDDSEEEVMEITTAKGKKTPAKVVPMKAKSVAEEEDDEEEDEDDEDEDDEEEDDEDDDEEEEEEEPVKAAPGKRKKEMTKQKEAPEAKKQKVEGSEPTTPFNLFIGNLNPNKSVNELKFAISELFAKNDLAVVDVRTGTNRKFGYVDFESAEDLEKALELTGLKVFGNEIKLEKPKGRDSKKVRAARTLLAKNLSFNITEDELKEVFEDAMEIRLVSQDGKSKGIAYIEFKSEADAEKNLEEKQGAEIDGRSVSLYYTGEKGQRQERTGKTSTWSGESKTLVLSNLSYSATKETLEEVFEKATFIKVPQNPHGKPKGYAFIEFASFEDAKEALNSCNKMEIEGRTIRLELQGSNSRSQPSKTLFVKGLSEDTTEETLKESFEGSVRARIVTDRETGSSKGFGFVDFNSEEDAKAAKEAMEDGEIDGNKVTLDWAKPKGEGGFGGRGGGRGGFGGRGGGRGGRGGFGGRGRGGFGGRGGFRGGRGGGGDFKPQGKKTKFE

Target: HNRNPK (mouse (endogenous in MEFs)) (UniProt P61979)
Test: co-IP; HNRNPK immunoprecipitated from Hnrnpk^SAM and empty vector MEFs with anti-HNRNPK (D6) antibody coupled to Dynabeads M-270 Epoxy; cells cryolysed in liquid nitrogen, resuspended in IP buffer

Substance: nucleolin (from UniProt P09405 1-707)
- binding: binds
